Data as given in PubChem BioAssay AID602196 (INSERM, 2012).
This is a random part of about 23,000 deposited reagents. 455 of all reagents (2%) count as active. 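Active includes both protection and sensitisation; some change values fall well beyond the stated -50 to +50 range.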 A number with no mark means an inactive call. The numbers tell different reagents against one gene apart. Not all columns of the deposit are shown. Not given: the amount of reagent.

Purpose: 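Knock-downs that protect lung cancer cells from cisplatin or sensitise them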
Cell system: human A549 lung cancer cells
Reagents: siRNA pair against human genes
Time to read-out: 48 h transfection before cisplatin; time from cisplatin to read-out not stated
Treatment: cisplatin at a dose killing half of control-siRNA cells; exact dose and duration not given
Measurement: 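Cisplatin cell death as a shift from the 50% death seen with control siRNA; siRNAs toxic or growth-blocking alone scored 0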
Direction: two-siRNA summed score (-2 to +2): higher = both siRNAs protect from cisplatin killing; -2 means both sensitise; mean protection from cisplatin (shift in death): higher = protection from cisplatin killing
Active means: 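Each siRNA scores 0 if harmful alone by LDH or WST-1, otherwise +1 if it reduces and -1 if it increases cisplatin killing; a gene is active when both siRNAs agree (sum +2 or -2)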
Meaning of the calls: active = both siRNAs shift cisplatin killing the same way; inactive = no consistent shift, or siRNA harmful alone

| target gene | reagent no. | two-siRNA summed score (-2 to +2) | mean protection from cisplatin (shift in death) (%) |
| --- | --- | --- | --- |
| LRIG2 | 1 | 0 | 6.4 |
| CALD1 | 1 | -1 | 3.3 |
| NCOR2 | 1 | 0 | -5.1 |
| TESC | 1 | -1 | -10.9 |
| SAE1 | 1 | 0 | -10 |
| OSTCP1 | 1 | -2 (active) | -12.9 |
| LOC390827 | 1 | 0 | 4.5 |
| TRMT112 | 1 | 0 | 11.1 |
| LOC440842 | 1 | 1 | 16.2 |
| GTSE1 | 1 | 0 | -30.1 |
| ODAD4 | 1 | 0 | 9.3 |
| MPPED1 | 1 | 0 | 6.6 |
| FSIP2 | 1 | 0 | 6.9 |
| FSIP2 | 2 | 0 | 9.6 |
| LOC402011 | 1 | 0 | 8.3 |
| LOC388722 | 1 | 0 | 13.5 |
| FERMT2 | 1 | 0 | 4.7 |
| TRIM27 | 1 | 0 | -0.9 |
| LOC152138 | 1 | 0 | 6.5 |
| ST3GAL2 | 1 | 1 | 13.8 |
| AP2S1 | 1 | 0 | -3.9 |
| NFAT5 | 1 | 0 | 6.8 |
| CNDP2 | 1 | 0 | -5.2 |
| LOC128102 | 1 | 0 | -0.3 |
| CROT | 1 | -1 | -8.2 |
| ESYT2 | 1 | 0 | 3.7 |
| SPACA1 | 1 | 0 | -5.6 |
| HSALR1 | 1 | 0 | 7.3 |
| ELSPBP1 | 1 | 0 | 8.5 |
| RPAP2 | 1 | -1 | -8.4 |
| CLIC5 | 1 | 0 | -20 |
| MGC13005 | 1 | 0 | 6.5 |
| GCNA | 1 | 0 | -11.5 |
| LOC401078 | 1 | 0 | 22.2 |
| REEP2 | 1 | 0 | -5.1 |
| SLC35H1 | 1 | 0 | -24.9 |
| EMC8 | 1 | 0 | 4.8 |
| DPEP1 | 1 | 1 | 10.9 |
| SLC16A11 | 1 | 0 | 9.5 |
| UFM1 | 1 | 0 | 2.3 |
| C10orf143 | 1 | 0 | 3.5 |
| H2AZ2 | 1 | 0 | 0.6 |
| SF3B6 | 1 | 0 | 18.8 |
| TBX18 | 1 | 0 | 1.6 |
| INTS4 | 1 | 0 | 3.1 |
| SLC26A2 | 1 | 0 | 11.8 |
| NDUFAB1 | 1 | 1 | 13.3 |
| MAP3K3 | 1 | 0 | -0.4 |
| PRKACA | 1 | -1 | -12.5 |
| USP29 | 1 | 0 | 6 |
| LINC00314 | 1 | 0 | 8.4 |
| CD5L | 1 | 0 | -14.6 |
| SATB2-AS1 | 1 | 0 | 5.2 |
| LOC389633 | 1 | 0 | 9.5 |
| IHO1 | 1 | 0 | 6.9 |
| LOC284269 | 1 | 0 | 10.8 |
| C1orf50 | 1 | 0 | 6.8 |
